Results as given in patent US8460664 (ACADEMIA SINICA, dated 2013).
No constants are given. Whether binding was seen depends on the method and setting. Some results given as binding are weak or reduced against the parent protein; the word gives no strength. Values belong to the binder of their own block, whether it stands above or below them.

Amino acid sequences for entries named in this document (tags omitted). Residues count along the entry.
UniProt P01854, residues 104-546: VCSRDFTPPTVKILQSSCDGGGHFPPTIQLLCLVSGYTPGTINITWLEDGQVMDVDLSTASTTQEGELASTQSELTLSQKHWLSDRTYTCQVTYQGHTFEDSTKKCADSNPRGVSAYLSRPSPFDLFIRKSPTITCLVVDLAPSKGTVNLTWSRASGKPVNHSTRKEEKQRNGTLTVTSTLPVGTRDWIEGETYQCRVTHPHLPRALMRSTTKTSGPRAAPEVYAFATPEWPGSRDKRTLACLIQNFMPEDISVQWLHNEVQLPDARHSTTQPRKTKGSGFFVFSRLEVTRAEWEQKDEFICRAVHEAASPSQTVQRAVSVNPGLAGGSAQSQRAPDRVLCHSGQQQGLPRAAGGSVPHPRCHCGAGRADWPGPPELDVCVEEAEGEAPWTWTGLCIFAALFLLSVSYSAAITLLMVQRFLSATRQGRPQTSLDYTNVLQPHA

Tests used:
[1] = target: T1, mIgE.FcL on transfected Ramos cells (human, UniProt P01854 104-546, limits assumed); test: method not described
[2] = target: mIgE.FcL on transfected CHO cells (human) (UniProt P01854); test: flow cytometry, hybridoma supernatants on transfected CHO cells
[3] = target: T1, mIgE.FcL on transfected Ramos cells; test: flow cytometry, hybridoma supernatants on transfected Ramos cells
[4] = target: T1, mIgE.FcL on transfected Ramos cells; test: binding to mIgE-expressing B cells, compared with a20

binding [1]: binds
B1: humanized 4B12 (antibody, V domains shown)
VH: QVQLQESGPGLVKPSETLSLTCTVSGYSITSDYAWNWIRQPPGKGLEWMISISYSGITGYNPSLKSRVTISVDTSKNQFSLKLSSVTAADTAVYYCARMGYDGLAYWGQGTLVTVSS
VL: DIVMTQTPLSLSVTPGQPASISCRSSQSIVHSNGNTYLEWYLQKPGQSPQLLIYKVSNRFSGVPDRFSGSGSGTDFTLKISRVEAEDVGVYYCFQGSHVPPTFGGGTKVEIKR

binding [2]: binds | binding [3]: binds | binding [4]: binds
B2: mouse monoclonal antibody 4B12 (antibody, V domains shown)
VH: DVQLQESGPGLVKPSQSLSLTCTVTGYSITSDYAWNWIRQFPGNKLEWMGSISYSGITGYNPSLKSRISVTRDTSKNQFFLQLNSVTTEDTATYYCARMGYDGLAYWGHGTTVTVSA
VL: DVLMTQTPLSLPVSLGDQASISCRSSQSIVHSNGNTYLEWYLQKPGQSPKLLIYKVSNRFSGVPDRFSGSGSGTDFTFKISRVEAEDLGVYYCFQGSHVPPTFGGGTKLEIKR
notes: Mouse hybridoma IgG, detected with anti-mouse IgG; also called parental mouse 4B12

binding [1]: binds
B3: chimeric 4B12 (antibody, V domains shown)
VH: B2 VH
VL: B2 VL
